# Laboratory results reported in the supplement of paper PMC7666118.
# Chains of the proteins cited; added tags and fusions are not shown. Lines headed by an entry give the natural chain unless they say otherwise; changes in a name come on top.
# UniProt Q9H2J4: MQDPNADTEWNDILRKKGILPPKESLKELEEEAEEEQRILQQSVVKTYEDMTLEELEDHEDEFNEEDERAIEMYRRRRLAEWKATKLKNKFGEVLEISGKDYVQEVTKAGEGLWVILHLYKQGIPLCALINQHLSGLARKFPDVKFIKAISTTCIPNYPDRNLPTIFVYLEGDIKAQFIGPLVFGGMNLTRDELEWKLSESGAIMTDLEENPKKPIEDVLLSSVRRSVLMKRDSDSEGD
# UniProt O94913, whole entry: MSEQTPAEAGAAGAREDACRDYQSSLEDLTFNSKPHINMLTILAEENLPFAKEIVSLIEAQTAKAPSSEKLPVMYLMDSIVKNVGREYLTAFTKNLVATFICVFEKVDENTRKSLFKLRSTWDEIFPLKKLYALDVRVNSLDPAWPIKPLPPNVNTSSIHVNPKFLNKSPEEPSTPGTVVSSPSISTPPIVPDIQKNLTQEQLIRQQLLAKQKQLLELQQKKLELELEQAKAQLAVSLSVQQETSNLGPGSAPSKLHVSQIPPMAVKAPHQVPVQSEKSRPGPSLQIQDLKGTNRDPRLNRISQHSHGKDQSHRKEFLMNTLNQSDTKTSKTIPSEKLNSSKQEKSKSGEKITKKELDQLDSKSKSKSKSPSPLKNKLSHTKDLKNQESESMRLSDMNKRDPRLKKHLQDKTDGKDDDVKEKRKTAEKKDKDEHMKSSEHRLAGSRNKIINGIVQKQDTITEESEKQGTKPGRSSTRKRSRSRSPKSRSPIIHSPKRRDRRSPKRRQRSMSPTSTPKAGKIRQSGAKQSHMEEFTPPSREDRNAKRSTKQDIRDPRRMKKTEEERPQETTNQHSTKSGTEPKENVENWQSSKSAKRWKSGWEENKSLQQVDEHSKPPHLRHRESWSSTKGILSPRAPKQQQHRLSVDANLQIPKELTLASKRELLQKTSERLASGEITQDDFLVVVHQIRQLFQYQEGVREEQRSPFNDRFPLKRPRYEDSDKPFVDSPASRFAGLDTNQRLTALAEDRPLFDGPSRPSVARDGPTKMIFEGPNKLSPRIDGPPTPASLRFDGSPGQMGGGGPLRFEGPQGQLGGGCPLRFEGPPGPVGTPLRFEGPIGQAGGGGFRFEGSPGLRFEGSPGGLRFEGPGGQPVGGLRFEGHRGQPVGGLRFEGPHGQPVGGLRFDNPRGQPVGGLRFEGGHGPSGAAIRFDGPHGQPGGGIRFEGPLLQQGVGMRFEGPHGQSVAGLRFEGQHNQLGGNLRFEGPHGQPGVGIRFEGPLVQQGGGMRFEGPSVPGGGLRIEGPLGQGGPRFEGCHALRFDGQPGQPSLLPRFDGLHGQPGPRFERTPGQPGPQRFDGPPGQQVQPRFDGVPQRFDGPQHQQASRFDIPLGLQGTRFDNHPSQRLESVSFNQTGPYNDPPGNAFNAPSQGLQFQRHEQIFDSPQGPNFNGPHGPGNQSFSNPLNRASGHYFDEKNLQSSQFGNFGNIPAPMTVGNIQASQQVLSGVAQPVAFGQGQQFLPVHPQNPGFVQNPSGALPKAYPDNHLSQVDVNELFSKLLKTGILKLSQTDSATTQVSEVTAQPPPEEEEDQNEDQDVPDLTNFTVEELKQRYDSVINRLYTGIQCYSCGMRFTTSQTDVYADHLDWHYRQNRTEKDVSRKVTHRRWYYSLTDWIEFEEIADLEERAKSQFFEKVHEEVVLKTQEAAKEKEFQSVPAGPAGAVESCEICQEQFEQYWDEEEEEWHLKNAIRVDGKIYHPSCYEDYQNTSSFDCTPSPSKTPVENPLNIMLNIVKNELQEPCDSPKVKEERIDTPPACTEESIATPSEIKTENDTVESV
# UniProt P18669: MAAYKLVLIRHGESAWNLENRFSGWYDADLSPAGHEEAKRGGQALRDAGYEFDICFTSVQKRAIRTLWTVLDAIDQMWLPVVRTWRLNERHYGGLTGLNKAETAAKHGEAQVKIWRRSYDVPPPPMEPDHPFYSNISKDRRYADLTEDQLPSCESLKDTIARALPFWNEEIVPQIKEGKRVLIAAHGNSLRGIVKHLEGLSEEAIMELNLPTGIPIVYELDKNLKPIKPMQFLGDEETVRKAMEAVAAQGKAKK
# UniProt Q13526, whole entry: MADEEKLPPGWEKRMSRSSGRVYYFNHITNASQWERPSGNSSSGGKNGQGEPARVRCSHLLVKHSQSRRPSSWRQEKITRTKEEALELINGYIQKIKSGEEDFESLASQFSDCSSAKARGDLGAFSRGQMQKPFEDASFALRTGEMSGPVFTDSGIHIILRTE
# UniProt Q13177, whole entry: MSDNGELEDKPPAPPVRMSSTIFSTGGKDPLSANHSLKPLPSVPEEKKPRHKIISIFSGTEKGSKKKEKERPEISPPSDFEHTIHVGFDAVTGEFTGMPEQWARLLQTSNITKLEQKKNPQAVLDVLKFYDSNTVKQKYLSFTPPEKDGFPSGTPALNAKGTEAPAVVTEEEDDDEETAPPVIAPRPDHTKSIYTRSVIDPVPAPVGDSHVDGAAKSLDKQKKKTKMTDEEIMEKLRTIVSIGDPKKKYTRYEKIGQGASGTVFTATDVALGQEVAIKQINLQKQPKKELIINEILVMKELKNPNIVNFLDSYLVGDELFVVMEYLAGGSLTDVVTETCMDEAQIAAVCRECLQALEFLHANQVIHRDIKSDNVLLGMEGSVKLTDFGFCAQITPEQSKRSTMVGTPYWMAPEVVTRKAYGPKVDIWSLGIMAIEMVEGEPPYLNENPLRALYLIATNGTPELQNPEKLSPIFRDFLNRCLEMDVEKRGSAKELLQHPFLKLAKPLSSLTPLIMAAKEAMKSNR
# UniProt Q92576, whole entry: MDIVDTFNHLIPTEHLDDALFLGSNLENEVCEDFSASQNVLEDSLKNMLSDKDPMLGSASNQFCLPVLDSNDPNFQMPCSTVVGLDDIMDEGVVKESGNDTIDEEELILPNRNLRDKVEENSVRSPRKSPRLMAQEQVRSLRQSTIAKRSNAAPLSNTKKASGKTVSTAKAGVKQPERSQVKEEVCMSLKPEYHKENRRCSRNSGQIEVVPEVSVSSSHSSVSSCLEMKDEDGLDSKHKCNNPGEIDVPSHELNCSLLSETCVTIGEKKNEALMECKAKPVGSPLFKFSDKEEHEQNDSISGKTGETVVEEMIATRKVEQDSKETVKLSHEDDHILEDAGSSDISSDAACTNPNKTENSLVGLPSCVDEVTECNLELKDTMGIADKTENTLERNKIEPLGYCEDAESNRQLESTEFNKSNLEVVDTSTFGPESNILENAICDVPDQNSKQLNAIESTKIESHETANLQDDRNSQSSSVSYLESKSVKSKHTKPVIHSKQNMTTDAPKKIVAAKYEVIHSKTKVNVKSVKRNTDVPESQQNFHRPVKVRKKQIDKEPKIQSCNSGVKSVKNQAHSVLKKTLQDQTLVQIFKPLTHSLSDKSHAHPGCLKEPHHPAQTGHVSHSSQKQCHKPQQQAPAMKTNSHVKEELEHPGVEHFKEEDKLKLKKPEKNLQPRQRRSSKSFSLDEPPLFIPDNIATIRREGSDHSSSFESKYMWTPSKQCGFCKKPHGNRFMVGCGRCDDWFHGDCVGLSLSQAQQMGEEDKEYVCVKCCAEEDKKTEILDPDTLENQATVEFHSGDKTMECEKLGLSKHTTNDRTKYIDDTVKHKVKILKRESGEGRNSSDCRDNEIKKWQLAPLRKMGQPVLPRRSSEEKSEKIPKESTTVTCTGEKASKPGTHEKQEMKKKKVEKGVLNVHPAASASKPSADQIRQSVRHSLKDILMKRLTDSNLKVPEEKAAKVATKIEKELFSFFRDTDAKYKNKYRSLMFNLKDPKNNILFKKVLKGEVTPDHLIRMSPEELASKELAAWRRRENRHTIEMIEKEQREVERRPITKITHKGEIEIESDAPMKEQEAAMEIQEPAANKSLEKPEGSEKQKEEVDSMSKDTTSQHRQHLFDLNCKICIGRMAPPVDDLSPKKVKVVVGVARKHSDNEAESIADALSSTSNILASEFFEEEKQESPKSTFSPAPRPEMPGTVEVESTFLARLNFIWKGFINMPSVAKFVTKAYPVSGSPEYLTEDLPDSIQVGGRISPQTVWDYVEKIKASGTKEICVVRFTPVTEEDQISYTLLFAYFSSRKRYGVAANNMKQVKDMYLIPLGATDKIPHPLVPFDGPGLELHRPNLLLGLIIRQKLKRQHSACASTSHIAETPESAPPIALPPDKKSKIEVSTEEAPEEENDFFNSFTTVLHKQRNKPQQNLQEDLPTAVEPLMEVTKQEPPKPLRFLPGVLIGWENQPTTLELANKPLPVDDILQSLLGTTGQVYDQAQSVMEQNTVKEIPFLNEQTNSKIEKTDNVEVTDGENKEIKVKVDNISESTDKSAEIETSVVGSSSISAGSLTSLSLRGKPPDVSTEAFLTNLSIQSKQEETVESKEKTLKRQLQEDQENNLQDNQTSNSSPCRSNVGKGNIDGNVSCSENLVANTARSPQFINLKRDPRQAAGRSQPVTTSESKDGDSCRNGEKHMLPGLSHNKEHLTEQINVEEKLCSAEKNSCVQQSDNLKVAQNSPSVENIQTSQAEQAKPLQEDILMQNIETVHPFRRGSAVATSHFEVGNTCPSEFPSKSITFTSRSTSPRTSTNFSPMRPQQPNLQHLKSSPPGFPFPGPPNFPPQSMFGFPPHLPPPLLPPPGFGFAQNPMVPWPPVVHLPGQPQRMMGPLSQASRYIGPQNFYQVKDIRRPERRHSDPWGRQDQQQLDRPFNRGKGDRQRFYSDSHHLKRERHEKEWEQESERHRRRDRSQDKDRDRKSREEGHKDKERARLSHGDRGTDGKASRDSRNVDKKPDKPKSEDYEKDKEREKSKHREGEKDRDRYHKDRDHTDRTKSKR
# UniProt Q9UKK3: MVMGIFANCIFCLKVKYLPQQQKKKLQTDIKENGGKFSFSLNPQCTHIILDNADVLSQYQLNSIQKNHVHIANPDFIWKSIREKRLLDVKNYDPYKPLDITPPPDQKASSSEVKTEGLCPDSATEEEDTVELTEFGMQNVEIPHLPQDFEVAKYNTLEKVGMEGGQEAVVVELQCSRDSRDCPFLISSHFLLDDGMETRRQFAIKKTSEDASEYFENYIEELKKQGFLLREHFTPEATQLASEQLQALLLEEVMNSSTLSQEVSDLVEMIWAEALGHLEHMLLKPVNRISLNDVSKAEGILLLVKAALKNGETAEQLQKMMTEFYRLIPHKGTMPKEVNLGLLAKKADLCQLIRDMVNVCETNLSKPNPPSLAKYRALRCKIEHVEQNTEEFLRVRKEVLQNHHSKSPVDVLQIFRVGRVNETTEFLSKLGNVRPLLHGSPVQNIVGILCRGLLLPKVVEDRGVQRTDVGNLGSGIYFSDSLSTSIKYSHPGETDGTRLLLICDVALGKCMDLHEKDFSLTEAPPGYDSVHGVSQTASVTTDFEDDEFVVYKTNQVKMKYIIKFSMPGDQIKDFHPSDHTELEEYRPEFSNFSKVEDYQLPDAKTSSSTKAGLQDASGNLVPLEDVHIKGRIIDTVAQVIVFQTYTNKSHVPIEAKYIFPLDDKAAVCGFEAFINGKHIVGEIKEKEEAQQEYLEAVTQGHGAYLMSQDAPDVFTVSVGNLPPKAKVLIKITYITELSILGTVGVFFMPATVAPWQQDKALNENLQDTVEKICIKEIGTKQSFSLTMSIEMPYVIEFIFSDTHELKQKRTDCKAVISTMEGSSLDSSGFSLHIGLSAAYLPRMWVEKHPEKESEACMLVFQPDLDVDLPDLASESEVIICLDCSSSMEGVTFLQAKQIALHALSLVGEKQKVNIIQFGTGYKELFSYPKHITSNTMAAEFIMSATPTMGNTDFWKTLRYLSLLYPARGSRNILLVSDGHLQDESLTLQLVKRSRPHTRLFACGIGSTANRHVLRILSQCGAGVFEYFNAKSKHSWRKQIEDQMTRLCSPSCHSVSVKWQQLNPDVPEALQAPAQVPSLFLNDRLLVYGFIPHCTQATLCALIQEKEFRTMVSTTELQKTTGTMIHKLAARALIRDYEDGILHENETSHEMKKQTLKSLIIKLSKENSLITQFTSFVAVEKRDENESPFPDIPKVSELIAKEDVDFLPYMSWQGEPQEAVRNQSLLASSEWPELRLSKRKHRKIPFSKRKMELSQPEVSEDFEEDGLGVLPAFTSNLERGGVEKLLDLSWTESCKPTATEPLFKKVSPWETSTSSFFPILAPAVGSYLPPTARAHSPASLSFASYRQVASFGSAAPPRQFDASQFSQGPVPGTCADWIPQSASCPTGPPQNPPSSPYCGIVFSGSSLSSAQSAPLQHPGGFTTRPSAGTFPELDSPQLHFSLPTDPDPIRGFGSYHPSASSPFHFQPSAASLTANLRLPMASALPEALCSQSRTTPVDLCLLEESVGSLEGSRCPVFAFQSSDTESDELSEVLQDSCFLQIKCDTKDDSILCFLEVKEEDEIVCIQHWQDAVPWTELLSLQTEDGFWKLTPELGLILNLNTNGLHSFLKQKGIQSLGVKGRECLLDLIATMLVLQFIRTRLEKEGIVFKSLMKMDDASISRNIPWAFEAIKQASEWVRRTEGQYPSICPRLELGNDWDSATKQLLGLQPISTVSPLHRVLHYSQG
# The other results are listed elsewhere or left out.
# Compound: COc1ccc(Cn2ccc3cc(C)c(C(=O)NO)cc32)cc1
# Assay: dose-dependent thermal stabilisation call (2D-TPP, DLPTP, 10% FDR) (binary (1 = stabilised)); higher = stabilised by the compound
# Conditions: system: HL-60 intact cells; concentration range 0.04-10 µM
# Method: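 2D thermal proteome profiling in intact HL-60 cells treated with BRD-3811 (0, 0.04, 0.29, 2, 10 uM) for 90 min at 37 C, then heated 3 min at one of 12 temperatures (42-63.9 C). Soluble protein was quantified by TMT10 MS. The value is the DLPTP call of the paper: dose-dependent thermal stabilisation over all temperatures at 10% FDR (F-test of a dose-response against a flat model); one experiment, one call per tested protein.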
row,Target,dose-dependent thermal stabilisation call
1,PIGQ (UniProt Q9BRB3),inactive: 0
2,PLEKHG4 (UniProt Q58EX7),inactive: 0
3,ORC4L (UniProt O43929),inactive: 0
4,PDPK1 (UniProt O15530),inactive: 0
5,PABPC1 (UniProt P11940),inactive: 0
6,PDCL3 (UniProt Q9H2J4),inactive: 0
7,PFTK1 (UniProt O94921),inactive: 0
8,OMA1 (UniProt Q96E52),inactive: 0
9,PIP3AP (UniProt Q9C0I1),inactive: 0
10,PCF11 (UniProt O94913),inactive: 0
11,PACS1 (UniProt Q6VY07),inactive: 0
12,OPLAH (UniProt O14841),inactive: 0
13,OIP5 (UniProt O43482),inactive: 0
14,PGAM1 (UniProt P18669),inactive: 0
15,PIN1 (UniProt Q13526),inactive: 0
16,PCTP (UniProt Q9UKL6),inactive: 0
17,PIK3R1 (UniProt P27986),inactive: 0
18,PAF1 (UniProt Q8N7H5),inactive: 0
19,PAK2 (UniProt Q13177),inactive: 0
20,PARVB (UniProt Q9HBI1),inactive: 0
21,PGAM5 (UniProt Q96HS1),inactive: 0
22,PHF3 (UniProt Q92576),inactive: 0
23,PHACTR2 (UniProt O75167),inactive: 0
24,PARP4 (UniProt Q9UKK3),inactive: 0
25,PGM2L1 (UniProt Q6PCE3),inactive: 0
26,PI4KA (UniProt P42356),inactive: 0
27,PGRMC1 (UniProt O00264),inactive: 0

# Quoted from above: nos. 16 to 17
row,Target,dose-dependent thermal stabilisation call
16,PCTP (UniProt Q9UKL6),inactive: 0
17,PIK3R1 (UniProt P27986),inactive: 0
